Experimental data taken from patent publication US7291768.

Protein sequences, listed by entry. Tags and fused reporters are not part of them. Chains listed by the source or under a name are the forms on record and can include a tag or linker.
UniProt B8BI93, other isoform, or with tags, fused parts or gaps: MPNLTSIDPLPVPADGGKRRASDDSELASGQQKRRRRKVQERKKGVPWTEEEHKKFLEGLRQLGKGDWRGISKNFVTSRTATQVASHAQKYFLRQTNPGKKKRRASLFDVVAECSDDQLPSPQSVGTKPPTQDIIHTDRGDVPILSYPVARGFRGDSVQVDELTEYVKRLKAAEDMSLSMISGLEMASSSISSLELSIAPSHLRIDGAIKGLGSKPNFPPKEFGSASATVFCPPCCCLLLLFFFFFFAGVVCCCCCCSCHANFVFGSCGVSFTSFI

Target: GAD-OsMYBS2 (Oryza sativa) (UniProt B8BI93)
Experiment: one hybrid
Conditions: LacZ increased; protein in cells; protein details: GAL4 activation domain fusion, yeast

**Q.** How did the “activity on this sequence” value turn out when “AATTCTATCCATATCCATATCCATATCCATATCCATATCCAC / GTGGATATGGATATGGATATGGATATGGATATGGATAG [6xTATCCA]” was run?
**A.** active
